What all share (test): affinity purification with mass spectrometry
In test [1] the target is T1, MeGBSSI (cassava granule-bound starch synthase I) (cassava, Manihot esculenta (endogenous in storage roots)) (UniProt Q43784).
T1 sequence: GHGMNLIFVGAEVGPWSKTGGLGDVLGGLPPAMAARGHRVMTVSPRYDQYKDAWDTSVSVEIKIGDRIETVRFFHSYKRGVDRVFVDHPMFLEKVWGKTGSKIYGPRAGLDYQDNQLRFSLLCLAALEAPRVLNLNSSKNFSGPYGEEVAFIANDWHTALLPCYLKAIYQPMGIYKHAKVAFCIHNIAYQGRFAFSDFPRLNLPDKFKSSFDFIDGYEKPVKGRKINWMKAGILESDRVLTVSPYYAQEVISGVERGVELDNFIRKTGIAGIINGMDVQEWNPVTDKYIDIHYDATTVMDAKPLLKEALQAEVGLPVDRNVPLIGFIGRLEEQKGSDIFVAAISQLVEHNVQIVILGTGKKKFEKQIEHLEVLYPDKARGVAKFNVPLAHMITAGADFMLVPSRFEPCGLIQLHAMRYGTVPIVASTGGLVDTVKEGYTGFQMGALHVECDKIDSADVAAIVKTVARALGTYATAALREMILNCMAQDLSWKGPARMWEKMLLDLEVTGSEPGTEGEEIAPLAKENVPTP

The target in test [2] is MeISAI (cassava isoamylase I) (cassava, Manihot esculenta (endogenous in storage roots)).
The target in test [3] is MeSSII (cassava soluble starch synthase II) (cassava, Manihot esculenta (endogenous in storage roots)).
Test [4] addresses MeISAII (cassava isoamylase II) (cassava, Manihot esculenta (endogenous in storage roots)).
For test [5], the target named is MeSSI (cassava soluble starch synthase I) (cassava, Manihot esculenta (endogenous in storage roots)).
For test [6], the target named is MeSBEII (cassava starch branching enzyme II) (cassava, Manihot esculenta (endogenous in storage roots)).
The target of test [7] is MeSBEI (cassava starch branching enzyme I) (cassava, Manihot esculenta (endogenous in storage roots)).

These are yes or no findings as the source states them, for the method shown. In cells and extracts the contact can be indirect. A yes stands for co-enrichment or nearness to the bait. Other partners may have been found.

On to MeAGPase (enzyme), for which the binding result in test [1] is “binds”.

With “Pyruvate orthophosphate dikinase (MePPDK) (enzyme)”, the binding result in test [1] is “binds”.

With MeISAI (cassava isoamylase I) (enzyme), the binding result in test [1] was “binds”.

As to Starch phosphorylase (MePho) (enzyme), in test [1], the binding entry is “binds”.

For the molecule “MeSBEII (cassava starch branching enzyme II)”, in test [1], the binding entry is “binds”.

Take “MeSSII (cassava soluble starch synthase II) (enzyme)”: in test [1], the binding result is “binds”.

Take “MeSSI (cassava soluble starch synthase I) (enzyme)”: the binding entry in test [1] is listed as “binds”.

For “MeSBEI (cassava starch branching enzyme I)”, in test [1], the binding result was “binds”.

As for 14-3-3 protein, the binding result in test [1] is recorded as “binds”.

Regarding MeSuS (enzyme), in test [1], the binding result is recorded as “binds”.

As for “MeISAII (cassava isoamylase II) (enzyme)”, the binding entry in test [1] is on record as “binds”.

B1: MeGBSSI (cassava granule-bound starch synthase I) (enzyme, UniProt Q43784 79-608)
chain: GHGMNLIFVGAEVGPWSKTGGLGDVLGGLPPAMAARGHRVMTVSPRYDQYKDAWDTSVSVEIKIGDRIETVRFFHSYKRGVDRVFVDHPMFLEKVWGKTGSKIYGPRAGLDYQDNQLRFSLLCLAALEAPRVLNLNSSKNFSGPYGEEVAFIANDWHTALLPCYLKAIYQPMGIYKHAKVAFCIHNIAYQGRFAFSDFPRLNLPDKFKSSFDFIDGYEKPVKGRKINWMKAGILESDRVLTVSPYYAQEVISGVERGVELDNFIRKTGIAGIINGMDVQEWNPVTDKYIDIHYDATTVMDAKPLLKEALQAEVGLPVDRNVPLIGFIGRLEEQKGSDIFVAAISQLVEHNVQIVILGTGKKKFEKQIEHLEVLYPDKARGVAKFNVPLAHMITAGADFMLVPSRFEPCGLIQLHAMRYGTVPIVASTGGLVDTVKEGYTGFQMGALHVECDKIDSADVAAIVKTVARALGTYATAALREMILNCMAQDLSWKGPARMWEKMLLDLEVTGSEPGTEGEEIAPLAKENVPTP
As to B1, the binding entry in test [2], in test [3], in test [4], in test [5], in test [6] and in test [7] was “binds” each time.

The values above are taken from article doi:10.1101/2020.03.25.006957.
